These results are taken from article PMC10379624.

Chains of the proteins cited; added tags and fusions are not shown.
UniProt P13864: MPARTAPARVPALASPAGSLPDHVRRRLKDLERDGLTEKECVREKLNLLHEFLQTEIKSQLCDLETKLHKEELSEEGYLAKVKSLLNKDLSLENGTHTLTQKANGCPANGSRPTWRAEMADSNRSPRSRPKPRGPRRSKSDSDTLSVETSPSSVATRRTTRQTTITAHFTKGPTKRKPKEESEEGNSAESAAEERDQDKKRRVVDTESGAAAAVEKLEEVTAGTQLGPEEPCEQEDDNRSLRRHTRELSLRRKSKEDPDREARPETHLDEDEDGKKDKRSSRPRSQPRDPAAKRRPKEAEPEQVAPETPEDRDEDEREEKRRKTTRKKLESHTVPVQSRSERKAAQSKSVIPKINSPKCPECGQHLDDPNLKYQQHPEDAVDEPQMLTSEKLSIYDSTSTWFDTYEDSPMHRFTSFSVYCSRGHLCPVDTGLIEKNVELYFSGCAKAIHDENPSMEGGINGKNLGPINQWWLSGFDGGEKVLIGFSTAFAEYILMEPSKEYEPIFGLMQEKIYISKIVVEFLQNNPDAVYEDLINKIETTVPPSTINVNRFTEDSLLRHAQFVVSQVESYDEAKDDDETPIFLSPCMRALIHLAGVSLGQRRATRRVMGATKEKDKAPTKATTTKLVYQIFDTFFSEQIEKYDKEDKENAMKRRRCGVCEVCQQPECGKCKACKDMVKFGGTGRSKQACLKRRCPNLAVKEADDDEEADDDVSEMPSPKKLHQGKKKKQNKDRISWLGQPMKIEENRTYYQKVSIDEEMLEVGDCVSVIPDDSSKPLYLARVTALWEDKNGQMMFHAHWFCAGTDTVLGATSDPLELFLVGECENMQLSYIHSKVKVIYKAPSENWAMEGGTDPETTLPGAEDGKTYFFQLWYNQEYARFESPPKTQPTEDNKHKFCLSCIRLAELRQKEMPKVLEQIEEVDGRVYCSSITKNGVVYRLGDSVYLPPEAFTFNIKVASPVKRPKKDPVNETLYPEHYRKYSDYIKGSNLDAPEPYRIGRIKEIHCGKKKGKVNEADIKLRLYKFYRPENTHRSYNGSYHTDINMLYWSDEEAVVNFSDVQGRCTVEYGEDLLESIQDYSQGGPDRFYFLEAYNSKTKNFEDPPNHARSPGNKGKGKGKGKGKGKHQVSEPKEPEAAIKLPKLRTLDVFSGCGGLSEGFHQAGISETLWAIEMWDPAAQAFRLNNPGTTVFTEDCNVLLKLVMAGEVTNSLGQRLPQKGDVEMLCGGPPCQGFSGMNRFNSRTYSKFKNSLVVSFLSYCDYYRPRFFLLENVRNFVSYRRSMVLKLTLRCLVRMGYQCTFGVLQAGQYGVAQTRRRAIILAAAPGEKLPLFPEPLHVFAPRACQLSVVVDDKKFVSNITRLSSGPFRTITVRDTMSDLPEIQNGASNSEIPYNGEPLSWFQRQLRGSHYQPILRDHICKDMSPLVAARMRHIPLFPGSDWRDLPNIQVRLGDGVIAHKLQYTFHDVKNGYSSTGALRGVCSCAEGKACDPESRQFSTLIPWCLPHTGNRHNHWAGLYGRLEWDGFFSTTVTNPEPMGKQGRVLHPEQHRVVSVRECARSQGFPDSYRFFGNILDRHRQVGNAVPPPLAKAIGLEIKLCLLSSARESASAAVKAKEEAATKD
UniProt Q3TKT4: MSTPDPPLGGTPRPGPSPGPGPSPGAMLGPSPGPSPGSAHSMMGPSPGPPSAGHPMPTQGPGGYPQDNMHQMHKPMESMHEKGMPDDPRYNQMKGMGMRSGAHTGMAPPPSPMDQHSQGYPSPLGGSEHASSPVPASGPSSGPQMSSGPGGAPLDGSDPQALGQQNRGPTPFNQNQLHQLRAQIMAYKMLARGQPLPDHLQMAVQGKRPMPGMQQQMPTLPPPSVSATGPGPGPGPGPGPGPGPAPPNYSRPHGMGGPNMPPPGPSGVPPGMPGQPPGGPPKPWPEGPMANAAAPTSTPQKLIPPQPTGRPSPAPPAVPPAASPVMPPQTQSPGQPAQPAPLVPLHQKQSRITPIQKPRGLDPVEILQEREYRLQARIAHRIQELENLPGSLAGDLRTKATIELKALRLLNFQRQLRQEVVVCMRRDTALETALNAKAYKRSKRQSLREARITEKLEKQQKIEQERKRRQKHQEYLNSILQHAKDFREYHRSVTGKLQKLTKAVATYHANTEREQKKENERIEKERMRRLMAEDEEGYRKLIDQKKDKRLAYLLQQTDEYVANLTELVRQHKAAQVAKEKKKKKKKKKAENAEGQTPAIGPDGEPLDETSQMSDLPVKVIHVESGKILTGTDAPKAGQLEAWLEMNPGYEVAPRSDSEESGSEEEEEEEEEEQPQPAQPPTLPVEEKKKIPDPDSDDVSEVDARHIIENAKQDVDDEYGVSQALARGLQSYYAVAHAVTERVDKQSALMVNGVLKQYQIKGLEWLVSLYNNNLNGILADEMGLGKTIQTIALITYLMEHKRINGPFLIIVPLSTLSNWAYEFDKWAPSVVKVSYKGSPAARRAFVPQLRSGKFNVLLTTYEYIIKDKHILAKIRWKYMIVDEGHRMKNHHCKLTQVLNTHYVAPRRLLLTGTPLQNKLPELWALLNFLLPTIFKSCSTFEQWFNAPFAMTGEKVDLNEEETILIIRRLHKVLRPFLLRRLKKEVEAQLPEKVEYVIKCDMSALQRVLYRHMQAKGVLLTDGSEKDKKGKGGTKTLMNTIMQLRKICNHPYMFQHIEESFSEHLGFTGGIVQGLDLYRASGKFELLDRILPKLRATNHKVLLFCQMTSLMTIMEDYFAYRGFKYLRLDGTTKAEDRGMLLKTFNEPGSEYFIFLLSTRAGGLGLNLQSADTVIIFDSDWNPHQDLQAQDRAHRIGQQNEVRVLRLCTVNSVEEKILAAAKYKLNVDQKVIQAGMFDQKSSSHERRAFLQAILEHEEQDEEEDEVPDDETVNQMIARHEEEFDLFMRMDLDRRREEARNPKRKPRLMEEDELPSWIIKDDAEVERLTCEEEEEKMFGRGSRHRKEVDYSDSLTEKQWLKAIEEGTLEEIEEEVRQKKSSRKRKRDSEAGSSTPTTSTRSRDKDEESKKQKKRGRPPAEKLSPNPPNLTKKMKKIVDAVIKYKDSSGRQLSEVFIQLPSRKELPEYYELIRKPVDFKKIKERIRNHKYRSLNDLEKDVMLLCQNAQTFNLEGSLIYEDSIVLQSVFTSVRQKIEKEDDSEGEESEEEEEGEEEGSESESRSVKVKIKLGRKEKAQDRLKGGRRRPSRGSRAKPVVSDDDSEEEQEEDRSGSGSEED
UniProt Q80Y84: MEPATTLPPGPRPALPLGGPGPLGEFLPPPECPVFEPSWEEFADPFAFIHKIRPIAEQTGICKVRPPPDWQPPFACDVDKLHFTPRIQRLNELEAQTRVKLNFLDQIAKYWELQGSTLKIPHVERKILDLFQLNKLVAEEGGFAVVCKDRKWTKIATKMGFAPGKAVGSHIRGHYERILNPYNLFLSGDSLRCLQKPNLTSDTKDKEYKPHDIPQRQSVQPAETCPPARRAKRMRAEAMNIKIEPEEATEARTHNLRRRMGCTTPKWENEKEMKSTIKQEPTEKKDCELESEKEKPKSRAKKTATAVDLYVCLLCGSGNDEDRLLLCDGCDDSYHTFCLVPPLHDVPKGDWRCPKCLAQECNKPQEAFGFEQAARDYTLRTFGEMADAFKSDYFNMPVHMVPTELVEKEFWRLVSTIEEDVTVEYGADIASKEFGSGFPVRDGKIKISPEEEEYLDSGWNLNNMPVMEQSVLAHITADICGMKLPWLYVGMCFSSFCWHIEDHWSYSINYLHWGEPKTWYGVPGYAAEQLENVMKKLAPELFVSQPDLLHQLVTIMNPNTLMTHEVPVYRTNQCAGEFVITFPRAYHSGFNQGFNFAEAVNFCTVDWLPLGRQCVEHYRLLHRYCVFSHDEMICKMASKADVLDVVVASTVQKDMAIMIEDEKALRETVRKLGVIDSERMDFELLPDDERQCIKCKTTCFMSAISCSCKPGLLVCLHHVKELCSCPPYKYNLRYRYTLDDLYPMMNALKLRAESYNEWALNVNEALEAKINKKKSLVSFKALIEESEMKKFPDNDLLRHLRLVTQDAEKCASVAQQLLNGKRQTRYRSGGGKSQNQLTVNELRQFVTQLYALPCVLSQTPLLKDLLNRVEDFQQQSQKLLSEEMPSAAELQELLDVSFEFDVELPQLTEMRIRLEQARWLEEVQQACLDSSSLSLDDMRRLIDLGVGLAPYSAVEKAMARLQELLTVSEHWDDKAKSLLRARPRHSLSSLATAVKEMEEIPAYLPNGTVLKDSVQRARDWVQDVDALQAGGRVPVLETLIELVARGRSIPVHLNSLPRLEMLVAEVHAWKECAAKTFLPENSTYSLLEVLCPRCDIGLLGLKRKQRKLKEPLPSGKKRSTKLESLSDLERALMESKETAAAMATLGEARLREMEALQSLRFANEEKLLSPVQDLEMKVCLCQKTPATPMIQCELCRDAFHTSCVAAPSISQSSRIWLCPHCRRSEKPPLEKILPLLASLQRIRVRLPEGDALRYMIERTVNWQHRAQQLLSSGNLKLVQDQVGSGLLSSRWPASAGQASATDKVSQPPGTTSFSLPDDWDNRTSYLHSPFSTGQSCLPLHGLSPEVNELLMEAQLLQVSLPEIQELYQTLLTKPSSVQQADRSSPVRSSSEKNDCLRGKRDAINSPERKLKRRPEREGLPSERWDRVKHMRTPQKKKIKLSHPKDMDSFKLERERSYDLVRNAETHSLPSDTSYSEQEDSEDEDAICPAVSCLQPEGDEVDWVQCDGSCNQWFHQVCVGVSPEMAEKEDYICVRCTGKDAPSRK
UniProt P83917: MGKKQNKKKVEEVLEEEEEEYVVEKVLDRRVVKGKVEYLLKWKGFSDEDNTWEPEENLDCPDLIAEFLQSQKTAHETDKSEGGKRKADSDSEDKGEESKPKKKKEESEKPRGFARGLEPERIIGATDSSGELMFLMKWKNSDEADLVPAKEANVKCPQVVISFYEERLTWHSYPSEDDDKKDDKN

No constants are given. Whether binding was seen depends on the method and setting. In cells and extracts the contact can be indirect. Some entries that bind do so weakly or less than the wild type. Sequences can lack the tags named with a protein.

The target of assay [1] is T1, Avidin-tagged ZFP296 (Zfp296-Bio) (mouse) (UniProt E9Q6W4).
T1 sequence: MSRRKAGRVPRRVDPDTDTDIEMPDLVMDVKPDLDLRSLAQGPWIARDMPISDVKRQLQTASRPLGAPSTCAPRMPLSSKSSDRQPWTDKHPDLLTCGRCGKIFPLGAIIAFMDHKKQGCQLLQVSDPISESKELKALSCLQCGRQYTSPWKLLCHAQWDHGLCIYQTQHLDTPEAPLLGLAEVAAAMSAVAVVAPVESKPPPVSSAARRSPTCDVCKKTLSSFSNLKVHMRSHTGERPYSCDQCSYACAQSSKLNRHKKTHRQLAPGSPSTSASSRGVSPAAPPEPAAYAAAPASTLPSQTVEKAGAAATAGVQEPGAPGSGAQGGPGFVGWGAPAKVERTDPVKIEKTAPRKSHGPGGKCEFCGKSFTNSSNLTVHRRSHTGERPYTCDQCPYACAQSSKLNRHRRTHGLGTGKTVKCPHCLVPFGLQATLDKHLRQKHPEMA
Description: co-IP; Avidin-tagged ZFP296 (Zfp296-Bio) co-expressed with the tagged partner in HEK-293T cells; whole-cell extract; capture on Dynabeads MyOne Streptavidin C1; Western blot; called co-immunoprecipitation by the paper.

The target of assay [2] is T2, Myc-tagged ZFP296 (zinc finger protein 296), full length (mouse) (UniProt E9Q6W4).
T2 sequence: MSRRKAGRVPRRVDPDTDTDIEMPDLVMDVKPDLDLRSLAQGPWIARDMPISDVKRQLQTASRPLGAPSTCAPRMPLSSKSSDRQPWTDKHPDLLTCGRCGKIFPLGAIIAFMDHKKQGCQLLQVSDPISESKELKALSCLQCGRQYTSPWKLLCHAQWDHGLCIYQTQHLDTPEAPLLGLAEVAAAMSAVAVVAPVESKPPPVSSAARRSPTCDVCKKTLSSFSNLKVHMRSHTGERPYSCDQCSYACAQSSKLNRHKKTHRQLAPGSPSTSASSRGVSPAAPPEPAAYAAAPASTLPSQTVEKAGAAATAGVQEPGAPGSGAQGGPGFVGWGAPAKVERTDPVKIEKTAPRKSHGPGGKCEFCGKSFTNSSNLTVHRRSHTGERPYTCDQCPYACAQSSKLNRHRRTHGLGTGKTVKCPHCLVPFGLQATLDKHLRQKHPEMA
Description: co-IP; Myc-tagged ZFP296 co-expressed with the tagged partner in HEK-293T cells; whole-cell extract in IP Lysis Buffer; Myc mAb overnight at 4 °C, Protein A/G agarose; control IgG; Western blot. (A western blot detects proteins with antibodies after separation by electrophoresis.)

In the case of “Flag-tagged DNMT1 (DNA methyltransferase 1) (from UniProt P13864 1-1620)”, the binding entry in assay [1] is “binds”.
In the case of “HA-tagged SMARCA4 (SWI/SNF-related, matrix-associated, actin-dependent regulator of chromatin, subfamily a, member 4) (from UniProt Q3TKT4 1-1613)”, the binding entry in assay [2] is listed as “binds”.
The same measure, in the same setting: for “Flag-tagged KDM5B (lysine demethylase 5B) (from UniProt Q80Y84 1-1544)” the value was “binds”.
Regarding “HA-tagged HP1β (chromobox 1) (from UniProt P83917 1-185)”, the binding result in assay [1] is recorded as “binds”.

B1: HA-tagged UHRF1 (ubiquitin-like with PHD and ring finger domains 1) (protein, UniProt Q8VDF2 1-782)
chain: MWIQVRTMDGKETHTVNSLSRLTKVQELRKKIEEVFHVEPQLQRLFYRGKQMEDGHTLFDYDVRLNDTIQLLVRQSLALPLSTKERDSELSDSDSGYGVGHSESDKSSTHGEGAAEADDKTVWEDTDLGLYKVNEYVDVRDNIFGAWFEAQVVQVQKRALSEDEPCSSSAVKTSEDDIMYHVKYDDYPEHGVDIVKAKNVRARARTVIPWENLEVGQVVMANYNVDYPRKRGFWYDVEICRKRQTRTARELYGNIRLLNDSQLNNCRIMFVDEVLMIELPKERRPLIASPSQPPPALRNTGKSGPSCRFCKDDENKPCRKCACHVCGGREAPEKQLLCDECDMAFHLYCLKPPLTSVPPEPEWYCPSCRTDSSEVVQAGEKLKESKKKAKMASATSSSRRDWGKGMACVGRTTECTIVPANHFGPIPGVPVGTMWRFRVQVSESGVHRPHVAGIHGRSNDGAYSLVLAGGYEDDVDNGNYFTYTGSGGRDLSGNKRTAGQSSDQKLTNNNRALALNCHSPINEKGAEAEDWRQGKPVRVVRNMKGGKHSKYAPAEGNRYDGIYKVVKYWPERGKSGFLVWRYLLRRDDTEPEPWTREGKDRTRQLGLTMQYPEGYLEALANKEKSRKRPAKALEQGPSSSKTGKSKQKSTGPTLSSPRASKKSKLEPYTLSEQQANLIKEDKGNAKLWDDVLTSLQDGPYQIFLSKVKEAFQCICCQELVFRPVTTVCQHNVCKDCLDRSFRAQVFSCPACRFELDHSSPTRVNQPLQTILNQLFPGYGSGR
For the molecule B1, in assay [1], the binding entry was “binds”.
